Results are given in words; binding and its absence hold for the method and conditions named. Some results given as binding are weak or reduced against the parent protein; the word gives no strength.
What was measured:
[1] = biological target: Arabidopsis thaliana ETHE1 (AtETHE1), recombinant protein expressed in E. coli from pET24b-AtETHE1 (Arabidopsis thaliana) (UniProt Q9C8L4); experiment: gel filtration
[2] = biological target: Arabidopsis thaliana ETHE1 (AtETHE1), recombinant protein expressed in E. coli from pET24b-AtETHE1 (Arabidopsis thaliana) (UniProt Q9C8L4); experiment: X-ray crystal structure, homodimer
[3] = biological target: Arabidopsis thaliana ETHE1 (AtETHE1), recombinant protein expressed in E. coli from pET24b-AtETHE1 (Arabidopsis thaliana) (UniProt Q9C8L4); experiment: gel filtration on Sephacryl column with protein standards

Measured: binding

B1: Arabidopsis thaliana ETHE1 (AtETHE1), recombinant protein expressed in E. coli from pET24b-AtETHE1 (enzyme)
chain: MKLLFRQLFENESSTFTYLLADVSHPDKPALLIDPVDKTVDRDLKLIDELGLKLIYAMNTHVHADHVTGTGLLKTKLPGVKSVISKASGSKADLFLEPGDKVSIGDIYLEVRATPGHTAGCVTYVTGEGADQPQPRMAFTGDAVLIRGCGRTDFQEGSSDQLYESVHSQIFTLPKDTLIYPAHDYKGFEVSTVGEEMQHNPRLTKDKETFKTIMSNLNLSYPKMIDVAVPANMVCGLQDVPSQAN
binds: [1] | [2] | [3]

From patent publication US20120291148A1, “TRANSGENIC PLANTS WITH ENHANCED CHARACTERISTICS” (Miami University, priority 2007, published 2012)
